# Measurements as given in PubChem BioAssay AID493014 (National Center for Advancing Translational Sciences (NCATS), 2011).
# Some of the results follow. Shown are side measurements of this screen, not its main read-out; they come without a call. The list favours compounds with an active or inconclusive main result. Potencies come from curve fits of mixed quality, noted in brackets.
# Assay: qHTS Assay to Find Inhibitors of Chronic Active B-Cell Receptor Signaling
# Settings: ABC-DLBCL IkBa-CBG/CBR reporter, luminescence ratio (green luciferase fused to IkBa over red control in TMD8 lymphoma cells), 4 h
# In short: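 TMD8 ABC-DLBCL cells carrying doxycycline-inducible green luciferase fused to IkappaBalpha plus unfused red luciferase were exposed to compounds (up to 46 uM) for 4 hrs at 37C. Activity came from the overlap-corrected green/red luminescence ratio.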
# [1] = measured here: CBR red luminescence, cell number
# [2] = measured here: IkBa-CBG green luminescence
structure (smiles),measurement,setting,value
O=C(Cn1cc(C(F)(F)F)ccc1=O)OCC(=O)c1ccc[nH]1,AC50,[1],"23.1 µM [rising, single point]"
COc1ccc(CNS(=O)(=O)c2cc(-c3cc(C)no3)ccc2C(C)C)cc1,AC50,[2],"35.5 µM [falling, single point]"
Cc1ccc(OCC(=O)c2cc(C)n(CC(F)(F)F)c2C)c([N+](=O)[O-])n1,AC50,[2],"25.1 µM [falling, single point]"
CC1=Nc2ccccc2/C1=C\c1nc(-c2ccccc2)oc1O,AC50,[1],"1.3 µM [rising, full curve, poor fit]"
CC1(C)Cc2c(c(N3CCOCC3)nc3sc(C(=O)N4CCCCC4)c(N)c23)CO1,AC50,[1],"0.058 µM [rising, full curve, poor fit]"
CC1CCCN(S(=O)(=O)Cc2ccc(Cl)cc2)C1 (stereo unspecified),AC50,[1],"13 µM [rising, partial curve, poor fit]"
CC(/C=C/c1ccc2c(c1)OCO2)=N\NC(=O)c1ccccc1,AC50,[1],"20 µM [falling, partial curve]"
COc1cccc(NC(=O)CSCC(=O)Nc2ccccc2)c1,AC50,[1],"16.4 µM [falling, single point]"
O=C(NCC(=O)N1CCN(C(c2ccccc2)c2ccccc2)CC1)c1ccc(Br)o1,AC50,[1],"5.62 µM [rising, single point]"
O=C(N/N=C/C(Br)=C/c1ccccc1)c1ccncc1,AC50,[1],"11.2 µM [falling, partial curve, poor fit]"
CCCCOc1ccccc1C(=O)NCCCC(=O)O,AC50,[1],"6.51 µM [rising, single point]"
COC(=O)CCS(=O)(=O)c1ccc(Cl)cc1,AC50,[1],"6.51 µM [falling, single point]"
CC1=NN(c2ccccc2)C(=O)/C1=C/C=C/c1ccc(N(C)C)cc1,AC50,[1],"1.41 µM [rising, full curve]"
CCOC(=O)c1c(NC(=O)C2CC=CCC2C(=O)O)sc(C)c1CC (stereo unspecified),AC50,[1],"7.08 µM [falling, partial curve]"
CC1CCc2cccc3c2N1c1cc(C#N)c(C#N)cc1O3 (stereo unspecified),AC50,[1],"14.1 µM [rising, partial curve, poor fit]"
Cc1ccc(C(=O)c2ccccc2C(=O)OCC(=O)Nc2cccc([N+](=O)[O-])c2)cc1,AC50,[1],"20.6 µM [falling, partial curve, poor fit]"
NC(=O)c1ccsc1NC(=O)CSc1nc2ccccc2c(=O)n1CCCO,AC50,[1],"16.4 µM [falling, single point]"
O=C(O)c1ccc(CSc2nnc(-c3ccccc3Br)o2)cc1,AC50,[1],"7.08 µM [falling, full curve, poor fit]"
O=C1CC(SCCO)C(=O)N1c1ccc(Oc2ccccc2)cc1 (stereo unspecified),AC50,[1],"0.291 µM [rising, full curve, poor fit]"
CCCN(CC1COc2ccccc2O1)C(=S)Nc1ccc(C)cc1 (stereo unspecified),AC50,[1],"20.6 µM [falling, single point]"
CNC(=O)c1[nH]cnc1C(=O)Nc1ccc(C)cc1,AC50,[1],"4.61 µM [falling, partial curve, poor fit]"
Cc1cc(C(=O)Nc2nnc(C(F)(F)F)s2)no1,AC50,[1],"16.4 µM [falling, partial curve, poor fit]"
COc1ccc(C)cc1NC(=O)c1ccccc1NS(=O)(=O)c1ccc(Cl)s1,AC50,[1],"11.2 µM [falling, partial curve, poor fit]"
O=C(NC(=S)Nc1ccc(F)c([N+](=O)[O-])c1)c1ccccc1F,AC50,[1],"35.5 µM [falling, single point]"
c1ccc2c(-c3c[nH]c4ccccc34)c3ccccc3nc2c1,AC50,[1],"35.5 µM [falling, single point]"
Cc1ccc(C(=O)N/N=C/c2ccoc2)cc1C,AC50,[1],"11.2 µM [falling, partial curve, poor fit]"
O=c1nc2c(-c3ccccc3F)n[nH]n2c2ccccc12,AC50,[1],"0.282 µM [falling, full curve]"
CCOC(=O)C1=C(C)NC(=S)NC1C (stereo unspecified),AC50,[1],"0.794 µM [rising, full curve, poor fit]"
CCc1cc2c(=O)c(-c3nc(C)cs3)coc2cc1O,AC50,[1],"0.316 µM [falling, full curve]"
COCC(C)Nc1ncnc2c1cnn2-c1ccc(Cl)cc1 (stereo unspecified),AC50,[1],"11.2 µM [falling, partial curve, poor fit]"
Cc1ccccc1OCCn1c(=O)sc2ccccc21,AC50,[1],"3.66 µM [rising, single point]"
O=C(c1cc(=O)c2ccccc2o1)N1CCN(c2ccccc2)CC1,AC50,[1],"3.55 µM [rising, partial curve, poor fit]"
S=C(Nc1ccc(Br)cc1)NC1CCCC1,AC50,[1],"18.4 µM [falling, single point]"
CCCC(=O)NC(c1ccc(N(C)C)cc1)c1c(O)ccc2ccccc12 (stereo unspecified),AC50,[1],"32.6 µM [falling, single point]"
CN(C1CCS(=O)(=O)C1)S(=O)(=O)c1ccccc1 (stereo unspecified),AC50,[1],"3.55 µM [falling, partial curve, poor fit]"
CCOC(=O)C1CCN(C(=O)c2cc3c(s2)-c2ccccc2OC3)CC1,AC50,[1],"12.6 µM [falling, partial curve, poor fit]"
Cc1ccc(C)c(CN2C(=O)c3ccccc3Sc3ccc(C(=O)NCCCOC(C)C)cc32)c1,AC50,[1],"6.31 µM [falling, partial curve, poor fit]"
NC(N)=N/N=C/c1ccc(OCc2ccccc2Cl)cc1,AC50,[1],"8.91 µM [falling, partial curve, poor fit]"
COCCC(=O)N1CCC(Oc2ccc(C(=O)NCc3cccc(C)n3)cc2)CC1,AC50,[1],"2.82 µM [rising, partial curve, poor fit]"
O=C(CCCN1C(=O)/C(=C\c2cccc(Br)c2)SC1=S)Nc1cccnc1,AC50,[1],"6.31 µM [falling, partial curve]"
O=C(NC1CCSc2ccccc21)c1ccc(F)c(S(=O)(=O)N2CCOCC2)c1 (stereo unspecified),AC50,[1],"11.2 µM [falling, partial curve]"
COc1cccc(CN2CCN(C(=S)NCc3ccc(Cl)cc3)CC2)c1,AC50,[1],"22.4 µM [falling, single point]"
COc1cccc(C2=NN(C(=O)c3ccc(C)o3)C(O)(C(F)(F)F)C2)c1 (stereo unspecified),AC50,[1],"11.2 µM [falling, single point]"
NC(=O)CC1C(=O)N(c2ccccc2)C(=S)N1NC(=O)c1ccccc1 (stereo unspecified),AC50,[1],"8.91 µM [falling, partial curve]"
Cc1cc(C)nc(N2N=C(CSc3ccc(Cl)cc3)CC2=O)n1,AC50,[1],"35.5 µM [rising, single point]"
O=C(Nc1cccc(C(F)(F)F)c1)c1cnc2n(c1=O)CCS2,AC50,[1],"29.1 µM [rising, single point]"
CC1CCN(C(=O)c2ccc(S(=O)(=O)N3CCOCC3)cc2)CC1,AC50,[1],"0.126 µM [rising, full curve, poor fit]"
COc1ccc(/C=N\NC(=O)C2CCCC2)cc1Br,AC50,[1],"35.5 µM [falling, single point]"
Cc1ccc2nc(C)c(C(=O)NN=C3CCCCCC3)n2c1,AC50,[2],"22.4 µM [falling, single point]"
COc1ccccc1N(Cc1cc(=O)[nH]c2ccccc12)C(=O)c1ccccc1,AC50,[1],"17.8 µM [falling, partial curve, poor fit]"
COCCn1c(N)c(N(Cc2ccccc2)C(=O)c2oc3ccccc3c2C)c(=O)[nH]c1=O,AC50,[1],"35.5 µM [rising, single point]"
CC(Cc1cccs1)NC(=S)Nc1ccccc1 (stereo unspecified),AC50,[1],"5.8 µM [rising, partial curve, poor fit]"
CC(C)Cn1c(SCC(=O)N(C)C2CCS(=O)(=O)C2)nc2cc(Cl)ccc2c1=O (stereo unspecified),AC50,[1],"6.51 µM [falling, partial curve, poor fit]"
COc1cccc(/C=C2\SC(=O)N(CCC(=O)NCCCn3ccnc3)C2=O)c1,AC50,[1],"14.1 µM [falling, partial curve, poor fit]"
CC(=O)c1ccc(NC(=O)CCCC(=O)c2ccccc2)cc1,AC50,[1],"0.355 µM [rising, full curve, poor fit]"
Cc1nn(C2CCS(=O)(=O)C2)c(Cl)c1/C=C/C(=O)OCC(N)=O (stereo unspecified),AC50,[1],"2.82 µM [falling, partial curve, poor fit]"
CCn1c(COc2ccccc2OC)nnc1SCC(=O)NC1CCCC1,AC50,[1],"5.62 µM [rising, single point]"
Cc1cccc(N2CCC(N3CCN(C4CCCCC4)C(CCO)C3)CC2)c1C (stereo unspecified),AC50,[1],"25.1 µM [falling, single point]"
O=C(COC(=O)c1ccc(Cl)nc1)Nc1cccc(S(=O)(=O)N2CCCCC2)c1,AC50,[1],"20.6 µM [rising, partial curve, poor fit]"
Cn1nc(-c2ccc(Cl)cc2)cc1NC(=O)CSCC(=O)O,AC50,[1],"35.5 µM [falling, single point]"
COc1cccc(OCCn2cc(C(=O)c3ccco3)c3ccccc32)c1,AC50,[1],"0.461 µM [falling, full curve]"
COC(=O)C1CCN(C(=O)CSc2nc3ccc(OC)cc3[nH]2)CC1,AC50,[1],"17.8 µM [falling, partial curve, poor fit]"
CCOC(=O)C1(Cc2ccccc2C(F)(F)F)CCN(C2CCN(C(C)=O)CC2)CC1,AC50,[1],"35.5 µM [falling, single point]"
Cc1cccc(-c2nc(-c3ccncc3)no2)c1,AC50,[1],"3.98 µM [rising, single point]"
O=C(Cn1cccc1C(=O)c1ccccc1)NCc1ccccn1,AC50,[1],"6.31 µM [rising, single point]"
O=C1c2ccccc2C(=O)N1CCC#Cc1ccc2cc(CCCO)oc(=O)c2c1,AC50,[1],"6.51 µM [rising, single point]"

# 4 of the compounds above, tab-delimited.
structure (smiles)	measurement	setting	value
CC1CCCN(S(=O)(=O)Cc2ccc(Cl)cc2)C1 (stereo unspecified)	AC50	[1]	13 µM [rising, partial curve, poor fit]
Cc1cc(C(=O)Nc2nnc(C(F)(F)F)s2)no1	AC50	[1]	16.4 µM [falling, partial curve, poor fit]
COc1ccc(C)cc1NC(=O)c1ccccc1NS(=O)(=O)c1ccc(Cl)s1	AC50	[1]	11.2 µM [falling, partial curve, poor fit]
Cc1cccc(-c2nc(-c3ccncc3)no2)c1	AC50	[1]	3.98 µM [rising, single point]
